Results on one molecule are retold here after article PMC12004362 (RSC Advances, 2025).

The test system of one test is BT-16 spheroids. The test can be described thus: High-content imaging of 3D spheroid viability. It is filed as cell-based. The note with it: Homo sapiens, BT-16, 72 h, read-out: EC50, BT-16 spheroids.
In the next test the test system is BT-12 spheroids. The test can be described thus: High-content imaging of 3D spheroid viability. It is filed as cell-based. The note with it: Homo sapiens, BT-12, 72 h, read-out: EC50, BT-12 spheroids.
The next test deals with BT-16 cells. The test can be described thus: Secondary screening. The note with it: read-out: BT-16 cells IC50; 2D culture, 72 h, MTT. In kind it is cell-based, human.
Another test deals with BT-12 cells. The test can be described thus: Secondary screening. To be noted: read-out: BT-12 cells IC50; 2D culture, 72 h, MTT. In kind it is cell-based, human.

In general, EC50 refers to the concentration that produces a half-maximal response. Usually IC50 stands for the concentration needed to halve the response being measured. Regarding `COc1cc2c(c(OC)c1OC)-c1ccc(OC)c(=O)cc1[C@@H](NC(C)=O)CC2` [Colchicine], the EC50 in the test on BT-16 spheroids came to 37 nM; in the test on BT-12 spheroids, 14 nM. The IC50 in the test on BT-16 cells turned out to be 56 nM; with BT-12 cells it was 16 nM.
